Data reported in article PMC4528263.
Results are given in words; binding and its absence hold for the method and conditions named. In cells and extracts the contact can be indirect. Some binding calls cover weakened binding; strength is not graded here.

Sequences of proteins named here, by UniProt entry; tags and fusion partners are left off. Residues count along the entry.
UniProt O14786, residues 22-923: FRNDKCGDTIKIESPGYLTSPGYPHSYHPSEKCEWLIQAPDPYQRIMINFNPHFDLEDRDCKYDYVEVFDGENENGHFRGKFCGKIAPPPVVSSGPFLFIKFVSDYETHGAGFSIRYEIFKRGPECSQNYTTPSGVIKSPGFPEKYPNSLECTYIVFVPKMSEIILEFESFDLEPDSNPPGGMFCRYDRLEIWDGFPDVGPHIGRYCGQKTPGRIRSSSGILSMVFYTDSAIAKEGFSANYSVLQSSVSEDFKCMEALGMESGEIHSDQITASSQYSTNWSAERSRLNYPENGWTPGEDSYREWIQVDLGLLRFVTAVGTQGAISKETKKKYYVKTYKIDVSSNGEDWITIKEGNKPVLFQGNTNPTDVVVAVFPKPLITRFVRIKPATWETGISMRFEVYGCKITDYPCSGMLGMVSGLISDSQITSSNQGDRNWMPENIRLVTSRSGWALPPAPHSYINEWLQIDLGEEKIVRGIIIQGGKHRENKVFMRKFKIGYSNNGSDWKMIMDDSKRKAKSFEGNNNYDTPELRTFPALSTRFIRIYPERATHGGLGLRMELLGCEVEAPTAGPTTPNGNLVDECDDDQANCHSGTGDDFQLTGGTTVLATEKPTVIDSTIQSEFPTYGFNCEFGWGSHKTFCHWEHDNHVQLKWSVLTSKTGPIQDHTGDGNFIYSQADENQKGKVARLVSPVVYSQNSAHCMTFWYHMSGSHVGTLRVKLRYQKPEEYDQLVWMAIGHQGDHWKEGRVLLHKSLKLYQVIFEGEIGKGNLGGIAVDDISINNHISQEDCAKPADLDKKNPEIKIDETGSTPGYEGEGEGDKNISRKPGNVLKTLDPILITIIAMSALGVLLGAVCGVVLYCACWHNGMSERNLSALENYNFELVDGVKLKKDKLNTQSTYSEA
UniProt P60953: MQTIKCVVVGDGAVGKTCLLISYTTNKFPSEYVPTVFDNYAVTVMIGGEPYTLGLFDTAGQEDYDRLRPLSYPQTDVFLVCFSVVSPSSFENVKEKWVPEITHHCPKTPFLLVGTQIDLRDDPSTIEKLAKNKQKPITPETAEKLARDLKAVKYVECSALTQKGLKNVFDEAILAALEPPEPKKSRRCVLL

Molecular target: Neuropilin 1 (NRP1) (human (endogenous in HDMECs)) (UniProt O14786)
Assay: co-IP; lysates from non-adherent (NA) and FN-adherent HDMECs immunoprecipitated with control IgG or NRP1 antibody, then immunoblotted for NRP1 and CDC42; endogenous proteins

binding: binds
Substance: CDC42 (from UniProt P60953 1-191)
